Publication PMC5024437
No constants are given. Whether binding was seen depends on the method and setting. In cells and extracts the contact can be indirect. Some binding calls cover weakened binding; strength is not graded here.

Biological target: T1, mSos1 (human (endogenous in A549)), Q07889
T1 chain: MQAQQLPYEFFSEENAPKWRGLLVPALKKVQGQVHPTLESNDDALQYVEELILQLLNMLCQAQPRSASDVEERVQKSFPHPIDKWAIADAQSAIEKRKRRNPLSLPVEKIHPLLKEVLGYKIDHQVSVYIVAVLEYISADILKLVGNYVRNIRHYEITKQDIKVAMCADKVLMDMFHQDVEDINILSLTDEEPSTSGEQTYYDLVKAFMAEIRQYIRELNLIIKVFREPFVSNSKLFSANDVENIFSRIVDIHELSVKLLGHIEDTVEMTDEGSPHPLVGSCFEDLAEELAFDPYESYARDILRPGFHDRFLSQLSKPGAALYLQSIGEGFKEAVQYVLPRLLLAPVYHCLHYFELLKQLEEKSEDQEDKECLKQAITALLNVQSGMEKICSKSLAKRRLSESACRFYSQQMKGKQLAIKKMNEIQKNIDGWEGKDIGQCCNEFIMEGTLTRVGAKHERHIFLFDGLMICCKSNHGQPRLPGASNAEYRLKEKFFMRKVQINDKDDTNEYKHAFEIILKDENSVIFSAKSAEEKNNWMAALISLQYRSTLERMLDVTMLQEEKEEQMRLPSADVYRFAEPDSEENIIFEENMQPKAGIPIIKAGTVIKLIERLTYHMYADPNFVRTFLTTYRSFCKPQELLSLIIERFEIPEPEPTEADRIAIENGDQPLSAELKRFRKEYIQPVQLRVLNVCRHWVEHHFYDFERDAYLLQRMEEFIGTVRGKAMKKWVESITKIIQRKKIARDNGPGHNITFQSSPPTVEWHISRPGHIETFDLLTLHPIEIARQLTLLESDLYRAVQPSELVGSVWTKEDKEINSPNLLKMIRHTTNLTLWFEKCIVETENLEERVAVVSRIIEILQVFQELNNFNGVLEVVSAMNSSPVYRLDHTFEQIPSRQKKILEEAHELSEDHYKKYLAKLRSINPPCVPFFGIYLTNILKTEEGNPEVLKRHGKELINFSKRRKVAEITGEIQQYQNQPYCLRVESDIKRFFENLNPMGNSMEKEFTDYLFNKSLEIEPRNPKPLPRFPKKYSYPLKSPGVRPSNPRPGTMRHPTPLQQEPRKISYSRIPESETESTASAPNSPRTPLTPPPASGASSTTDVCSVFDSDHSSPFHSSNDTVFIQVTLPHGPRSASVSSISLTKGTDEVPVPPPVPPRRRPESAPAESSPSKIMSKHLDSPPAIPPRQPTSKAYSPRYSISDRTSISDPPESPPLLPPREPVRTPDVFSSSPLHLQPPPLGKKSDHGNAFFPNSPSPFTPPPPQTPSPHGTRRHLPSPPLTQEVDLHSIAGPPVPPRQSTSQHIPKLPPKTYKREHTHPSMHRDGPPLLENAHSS
Assay: co-IP; A549 and A549 + ITSN-1s (stable myc-ITSN-1s) cell lysates, 500 ug total protein, lysis buffer 50 mM Tris-HCl pH 8.0, 150 mM NaCl, 1 % NP-40; IP with 3 ug mSos1 or Cbl Ab and protein A/G, WB with Rac1 or Eps8 Ab; densitometry as percentage of control
Settings: remark: other sources report otherwise

binding: binds
B1: Eps8, Q12929 1-822 (natural protein)
chain: MNGHISNHPSSFGMYPSQMNGYGSSPTFSQTDREHGSKTSAKALYEQRKNYARDSVSSVSDISQYRVEHLTTFVLDRKDAMITVDDGIRKLKLLDAKGKVWTQDMILQVDDRAVSLIDLESKNELENFPLNTIQHCQAVMHSCSYDSVLALVCKEPTQNKPDLHLFQCDEVKANLISEDIESAISDSKGGKQKRRPDALRMISNADPSIPPPPRAPAPAPPGTVTQVDVRSRVAAWSAWAADQGDFEKPRQYHEQEETPEMMAARIDRDVQILNHILDDIEFFITKLQKAAEAFSELSKRKKNKKGKRKGPGEGVLTLRAKPPPPDEFLDCFQKFKHGFNLLAKLKSHIQNPSAADLVHFLFTPLNMVVQATGGPELASSVLSPLLNKDTIDFLNYTVNGDERQLWMSLGGTWMKARAEWPKEQFIPPYVPRFRNGWEPPMLNFMGATMEQDLYQLAESVANVAEHQRKQEIKRLSTEHSSVSEYHPADGYAFSSNIYTRGSHLDQGEAAVAFKPTSNRHIDRNYEPLKTQPKKYAKSKYDFVARNNSELSVLKDDILEILDDRKQWWKVRNASGDSGFVPNNILDIVRPPESGLGRADPPYTHTIQKQRMEYGPRPADTPPAPSPPPTPAPVPVPLPPSTPAPVPVSKVPANITRQNSSSSDSGGSIVRDSQRHKQLPVDRRKSQMEEVQDELIHRLTIGRSAAQKKFHVPRQNVPVINITYDSTPEDVKTWLQSKGFNPVTVNSLGVLNGAQLFSLNKDELRTVCPEGARVYSQITVQKAALEDSSGSSELQEIMRRRQEKISAAASDSGVESFDEGSSH
